The data set can be described thus: In vivo addition of NHS-rhodamine to an isolated carotid artery segment. Also on record: species or system New Zealand rabbits. To be noted: 100 μl of 500 μM incubated in 1-cm arterial incubation chamber for 3 minutes, then washed.

As to “Rhodamine Green™-X, succinimidyl ester, hydrochloride mixed isomers [NHS-Rhodamine]”, the “fluorescence of treated arteries” value was “dramatic levels of fluorescence”.

In the case of Rhodamine, the “fluorescence of treated arteries” value is recorded as “little fluorescence over background”.
